Assay results reported in patent US20090291879A1 (published 2009).
Results are given in words; binding and its absence hold for the method and conditions named. Some binding calls cover weakened binding; strength is not graded here. Sequences can lack the tags named with a protein.

Amino acid sequences for entries named in this document (tags omitted). A change or cut given only in a name is not applied to a line headed by its entry.
UniProt P17301: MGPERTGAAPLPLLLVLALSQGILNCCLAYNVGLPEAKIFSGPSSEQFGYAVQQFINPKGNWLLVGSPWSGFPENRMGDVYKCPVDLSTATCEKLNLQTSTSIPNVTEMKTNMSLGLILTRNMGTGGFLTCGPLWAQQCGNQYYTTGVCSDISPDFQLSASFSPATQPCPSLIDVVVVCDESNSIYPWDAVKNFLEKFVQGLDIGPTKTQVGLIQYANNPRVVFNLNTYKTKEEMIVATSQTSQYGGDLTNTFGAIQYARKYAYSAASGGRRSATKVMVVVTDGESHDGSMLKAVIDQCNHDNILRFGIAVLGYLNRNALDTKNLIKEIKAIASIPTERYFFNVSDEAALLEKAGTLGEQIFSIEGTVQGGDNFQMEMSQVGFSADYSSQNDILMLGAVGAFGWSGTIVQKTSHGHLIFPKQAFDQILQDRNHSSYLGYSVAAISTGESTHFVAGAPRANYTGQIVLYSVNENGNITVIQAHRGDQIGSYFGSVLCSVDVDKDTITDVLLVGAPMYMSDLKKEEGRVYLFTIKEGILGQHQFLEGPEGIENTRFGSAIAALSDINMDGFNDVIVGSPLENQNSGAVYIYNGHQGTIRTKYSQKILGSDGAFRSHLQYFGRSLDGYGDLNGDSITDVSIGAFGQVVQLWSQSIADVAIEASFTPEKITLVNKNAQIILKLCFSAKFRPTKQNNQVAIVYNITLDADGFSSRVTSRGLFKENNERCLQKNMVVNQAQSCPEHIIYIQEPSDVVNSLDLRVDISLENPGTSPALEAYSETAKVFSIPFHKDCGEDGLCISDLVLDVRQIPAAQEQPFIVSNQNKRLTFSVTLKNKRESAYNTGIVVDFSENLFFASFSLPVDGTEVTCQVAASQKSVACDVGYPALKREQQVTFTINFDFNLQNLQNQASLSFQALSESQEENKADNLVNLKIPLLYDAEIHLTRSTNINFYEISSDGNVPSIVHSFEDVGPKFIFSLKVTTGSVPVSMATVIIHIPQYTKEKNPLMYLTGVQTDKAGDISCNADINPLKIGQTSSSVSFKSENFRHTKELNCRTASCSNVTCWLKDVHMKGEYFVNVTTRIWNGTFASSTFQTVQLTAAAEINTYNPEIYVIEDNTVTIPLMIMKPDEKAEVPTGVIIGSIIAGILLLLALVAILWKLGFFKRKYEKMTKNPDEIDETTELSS
UniProt P05556: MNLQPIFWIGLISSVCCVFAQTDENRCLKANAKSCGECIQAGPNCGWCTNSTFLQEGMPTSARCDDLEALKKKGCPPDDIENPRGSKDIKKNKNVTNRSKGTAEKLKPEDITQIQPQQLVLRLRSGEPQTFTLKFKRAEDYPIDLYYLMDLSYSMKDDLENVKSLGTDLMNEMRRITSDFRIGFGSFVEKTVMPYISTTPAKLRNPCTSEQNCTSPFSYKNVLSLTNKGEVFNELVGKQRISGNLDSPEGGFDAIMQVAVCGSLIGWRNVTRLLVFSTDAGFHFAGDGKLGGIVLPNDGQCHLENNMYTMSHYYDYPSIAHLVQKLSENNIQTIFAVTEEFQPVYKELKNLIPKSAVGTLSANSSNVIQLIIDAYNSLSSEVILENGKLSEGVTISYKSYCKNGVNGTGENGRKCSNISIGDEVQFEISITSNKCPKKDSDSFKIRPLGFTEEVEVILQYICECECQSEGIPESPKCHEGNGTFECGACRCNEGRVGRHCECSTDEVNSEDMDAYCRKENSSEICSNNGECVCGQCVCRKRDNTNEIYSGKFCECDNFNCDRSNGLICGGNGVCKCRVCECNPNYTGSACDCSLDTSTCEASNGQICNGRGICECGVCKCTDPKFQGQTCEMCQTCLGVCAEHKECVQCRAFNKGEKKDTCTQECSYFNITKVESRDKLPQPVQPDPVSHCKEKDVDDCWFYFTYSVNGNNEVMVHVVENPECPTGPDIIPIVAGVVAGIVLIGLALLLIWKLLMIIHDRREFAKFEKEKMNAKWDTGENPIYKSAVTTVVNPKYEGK

Molecular target: Integrin α2β1 on human chondrosarcoma cells (K9, K105) (human) (UniProt P17301+P05556)
Test: adhesion of K9 cells to coated protein, 1 hour, N-acetylglucosaminidase read-out; receptor as attributed in paragraph 181

Row | binding | Binder
1 | binds | Recombinant human chondroadherin expressed in EBNA cells (ligand) CPQNCHCHSDLQHVICDKVGLQKIPKVSEKTKLLNLQRNNFPVLAANSFRAMPNLVSLHLQHCQIREVAAGAFRGLKQLIYLYLSHNDIRVLRAGAFDDLTELTYLYLDHNKVTELPRGLLSPLVNLFILQLNNNKIRELRAGRFQGAKDLRWLYLSENALSSLQPGALDDVENLAKFHVDRNQLSSYPSAALSKLRVVEELKLSHNPLKSIPDNAFQSFGRYLETLWLDNTNLEKFSDGAFLGVTTLKHVHLENNRLNQLPSNFPFDSLETLALTNNPWKCTCQLRGLRRWLEAKASRPDATCASPAKFKGQHIRDTDAFRSCKFPTKRSKKAGRH
2 | binds | Human chondroadherin expressed in E. coli (His-tagged, unfolded) (ligand, not shown: small tags and cut ends, cysteine residues blocked by N-ethylmaleimide) CPQNCHCHSDLQHVICDKVGLQKIPKVSEKTKLLNLQRNNFPVLAANSFRAMPNLVSLHLQHCQIREVAAGAFRGLKQLIYLYLSHNDIRVLRAGAFDDLTELTYLYLDHNKVTELPRGLLSPLVNLFILQLNNNKIRELRAGRFQGAKDLRWLYLSENALSSLQPGALDDVENLAKFHVDRNQLSSYPSAALSKLRVVEELKLSHNPLKSIPDNAFQSFGRYLETLWLDNTNLEKFSDGAFLGVTTLKHVHLENNRLNQLPSNFPFDSLETLALTNNPWKCTCQLRGLRRWLEAKASRPDATCASPAKFKGQHIRDTDAFRSCKFPTKRSKKAGRH
